The experiment can be described thus: qHTS Assay for Lipid Storage Modulators in Drosophila S3 Cells.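 For cell number change: cells counted by Cell Tracker Red CMTPX staining in the red channel.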 As to conditions: BODIPY lipid droplet fluorescence, 18-24 h; for cell number change: measured here: cell count max response, cells fed with added oleic acid. In short, it runs like this:
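Drosophila S3 cells got compounds at several concentrations plus oleic acid (400 uM solution). Laser-scanning cytometry with 488 nm excitation read lipid droplets at 500-530 nm and cells at 575-640 nm. Percent activity was relative to 20 uM Triacsin C.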
Background: In qHTS, concentration-response curves come from the screen itself.

[1] abbreviates: measured here: cell number channel AC50, cells fed with added oleic acid.
Where [2] appears, read: measured here: lipid fluorescence (Fed channel) AC50, cells fed with added oleic acid.

The results in this text go back to PubChem BioAssay AID2685 (National Center for Advancing Translational Sciences (NCATS), 2010).

One may read the AC50 as the midpoint of the concentration-response curve, whichever way the signal moves. High values mean weaker potency, low ones greater potency.

Some of the results follow. Further columns of the screen follow, without active or inactive calls. Compounds called inactive in the main read-out are mostly missing here. Potencies come from curve fits of mixed quality, noted in brackets.

With `Cc1ccc(OCc2cccc(S(=O)(=O)N(C)C)c2)c([N+](=O)[O-])n1`, the cell number change was 29.5%. Under setting [1], the AC50 was 0.164 µM [rising, full curve, poor fit].
For the molecule `O=C(c1ccccn1)N1CCN(C(=O)c2ccccn2)CC1`, the cell number change is -16%. For the same molecule, the AC50 under setting [2] is 0.411 µM [falling, full curve, poor fit].
Regarding `O=C(CSc1ccc(Cl)cc1)N1CCN(c2c(Cl)cccc2[N+](=O)[O-])CC1`, the cell number change amounted to 42.1%.
With `O=C(NC1CCCCC1)C(c1ccco1)N(C(=O)c1csnn1)c1ccc(Cl)cc1` (configuration not stated), the cell number change was 32.3%. Moreover, the AC50 under setting [2] is 0.00461 µM [falling, full curve, poor fit].
For `Cc1ccc(F)cc1NC(=O)CSc1nc(Nc2ccccc2)nc(N2CCOCC2)n1`, the cell number change was determined as 16.2%. Under setting [2], the AC50 is 29.1 µM [rising, single point].
With `Clc1ccc(Cn2cnc3ccccc32)cc1`, the cell number change was -32.9%. The half-maximal activity concentration (AC50) under setting [1] was 0.146 µM [falling, full curve]. The AC50 under setting [2] was 0.366 µM [falling, full curve].
On to `CC(Cc1ccccc1)C(=O)N(C)Cc1ccccc1` (configuration not stated), for which the cell number change is -12.2%. Besides, under setting [2], the AC50 was 0.58 µM [falling, full curve, poor fit].
As to `Cc1ccc2nc(Cl)c(/C=N/Nc3ccc(C(=O)O)cc3)cc2c1`, the cell number change was determined as 5.36%. The AC50 under setting [1] is 4.11 µM [rising, single point]. In addition, the AC50 under setting [2] is 6.51 µM [rising, single point].
`COc1ccc(C(=O)C(C)Oc2cccc(NC(=O)c3cccc([N+](=O)[O-])c3)c2)cc1` (configuration not stated): the cell number change is 36.3%. Under setting [1], the AC50 is 0.82 µM [rising, full curve, poor fit]. Besides, under setting [2], the AC50 was 0.82 µM [rising, full curve, poor fit].
For the molecule `CCS(=O)(=O)c1ccc(O)c(NC(=O)COc2ccc(OC)cc2)c1`, the cell number change is -17.3%. Further, the half-maximal activity concentration (AC50) under setting [2] is 16.4 µM [rising, single point].
With `CCOC(=O)Cc1csc(NC(=O)NC2(C(F)(F)F)Oc3ccc(Cl)cc3O2)n1` (configuration not stated), the cell number change was found to be 1.84%.
As for `O=C1CC(c2ccc(F)cc2)CC(O)=C1C=NCCN1CCN(C(=O)Nc2ccccc2)CC1` (configuration not stated), the cell number change turned out to be 2.08%. Under setting [2], the AC50 was 6.51 µM [rising, single point].
Regarding `O=C1CSC(c2cccnc2)N1c1ccc(F)cc1` (configuration not stated), the cell number change amounted to 45.1%. Moreover, the AC50 under setting [1] was 0.731 µM [rising, full curve].
Consider `Cc1noc(C)c1CSc1nc2ccccc2[nH]1`, for which the AC50 under setting [2] was 0.0517 µM [falling, full curve].
Regarding `OC1(c2ccc(Cl)c(Cl)c2)C[n+]2ccccc2N1Cc1ccccc1` (configuration not stated), the cell number change amounted to 0.234%.
Take `CCc1noc(C)c1C(=O)Nc1nc2c(F)cc(F)cc2s1`: the cell number change is -7.26%. Besides, the AC50 under setting [2] is 5.17 µM [rising, single point].
For `CCCOc1ccc([N+](=O)[O-])c(N)c1`, the cell number change was 33.3%. In addition, the AC50 under setting [1] is 23.1 µM [rising, single point].
Turning to `COc1ccc(CC(=O)N(Cc2ccccc2)c2ccccc2)cc1S(=O)(=O)N1CCOCC1`, the cell number change is 41.5%. The AC50 under setting [1] was 31.6 µM [rising, single point]. Besides, under setting [2], the AC50 is 3.98 µM [rising, partial curve, poor fit].
Turning to `COC(=O)c1cncc(O)c1`, the cell number change is 6.92%. The AC50 under setting [2] is 29.1 µM [falling, single point].
On to `CC1(C)CC2CC(C)(CN2CC(O)c2ccccc2)C1` (configuration not stated), for which the cell number change worked out at 2.84%.
For `Cc1ccc(OS(=O)(=O)c2cn(C)c(=O)n(C)c2=O)cc1C`, the cell number change is -8%. Moreover, under setting [2], the AC50 is 6.51 µM [rising, single point].
With `Cc1ccc(NC(=O)NC(=O)N(C2CCCCC2)S(=O)(=O)c2ccccc2)cc1`, the cell number change was 16.7%. Under setting [1], the AC50 was 2.31 µM [rising, partial curve].
Turning to `Cc1[nH]c2ccc(Br)cc2c(=O)c1CN1CCOCC1`, the cell number change is -2%. Moreover, under setting [2], the AC50 is 0.0291 µM [falling, full curve, poor fit].
Consider `NS(=O)(=O)c1cccnc1Nc1cccc(Cl)c1Cl`, for which the cell number change was -15.9%. Besides, the AC50 under setting [2] is 2.06 µM [falling, full curve, poor fit].
As for `O=C(O)c1cn[nH]c1-n1cnnn1`, the cell number change was -47.8%. Moreover, under setting [1], the AC50 is 0.291 µM [falling, full curve]. Further, under setting [2], the AC50 was 1.3 µM [falling, single point].
Regarding `O=c1[nH]c(-c2ccccc2O)nc2c1CCCC2`, the cell number change worked out at 3.49%. For the same molecule, under setting [2], the AC50 was 0.58 µM [falling, partial curve].
For the molecule `COc1ccc(S(=O)(=O)c2cnc3ccccc3n2)cc1`, the cell number change was -1.22%.
On to `Cn1c(C(=O)OCC(=O)NCc2cccs2)cc2sccc21`, for which the cell number change was -37.8%. In addition, under setting [1], the AC50 is 32.6 µM [falling, single point].
Regarding `CCn1c(CNC(=O)c2cccs2)nnc1SCC(=O)Nc1cc(Cl)ccc1C`, the cell number change was -16.2%. The AC50 under setting [2] is 0.0146 µM [falling, full curve, poor fit].
Take `COc1cc(C(=O)NCCc2cn3ccccc3n2)cc(OC)c1OC`: the cell number change stood at 132%. Under setting [1], the AC50 is 14.6 µM [rising, partial curve]. In addition, under setting [2], the AC50 was 14.6 µM [rising, partial curve].
`Cc1ccc(-n2nc3c(N4CCC(C(=O)NCc5cccc(F)c5)CC4)nnc(C)c3c2C)cc1`: the AC50 reads like this: under setting [1], 6.51 µM [rising, single point]; under setting [2], 5.17 µM [rising, single point].
With `COc1ccc(NCCC(O)c2ccc(Cl)cc2)cc1` (configuration not stated), the cell number change turned out to be 16.2%.
For the molecule `CSc1ncccc1C(=O)Nc1ccc2c(c1)OCO2`, the cell number change is -12.9%. The AC50 under setting [2] was 11.6 µM [rising, partial curve].
With `COc1cccc(C2C=C(c3ccc(Br)s3)Nc3ncnn32)c1OC` (configuration not stated), the AC50 reads like this: under setting [1], 1.03 µM [rising, partial curve]; under setting [2], 0.103 µM [rising, full curve, poor fit].
On to `Cc1cccc2cc(C(c3nnnn3CC3CCCO3)N3CCc4ccccc4C3)c(=O)[nH]c12` (configuration not stated), for which the cell number change came to 42.4%. The AC50 under setting [1] is 6.51 µM [rising, partial curve]. Moreover, the AC50 under setting [2] is 0.461 µM [rising, partial curve].
With `Cc1cccc(NC(=S)NC(=O)/C=C/c2ccccc2)n1`, the cell number change was -36.3%.
Still for that read-out and setting: for `CC(=O)Nc1cc(C(=O)N2CCCC2)ccc1Sc1ccc(C)cc1` the value was -1.05%.
As to `CCN1CCc2c(sc(NC(=O)c3ccc(S(=O)(=O)N4CCCCCC4)cc3)c2C(=O)NC)C1`, the cell number change is -45.8%. The AC50 under setting [1] was 3.26 µM [falling, full curve]. For the same molecule, the AC50 under setting [2] is 2.91 µM [falling, full curve].
Consider `C/C(=N\NC(=O)c1sccc1C)c1cccnc1`, for which the cell number change was -39.6%. Moreover, the AC50 under setting [1] was 0.00517 µM [falling, full curve, poor fit].
